PubChem BioAssay AID1259308 | NCATS | 2017
Assay: 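Knock-downs that increase output of a recombinant reporter protein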 (primary screen). System: human HEK293 embryonic kidney cells stably expressing firefly luciferase (HEK-CMV-Luc2-Hygro). Reagent: single siRNA against human genes, 0.8 pmol siRNA per well. Timing: 72 h. Measurement: 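Reporter luminescence and viable-cell signal on separate replicate plates, given as percent of non-targeting control and median/MAD z-scores, plus per-cell luciferase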. Reading the numbers: total luciferase, z-score and total luciferase, % of control: higher = more reporter protein produced; luciferase per cell, z-score: higher = more reporter output per viable cell. Call rule: 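An siRNA counts as active if its total luciferase robust z-score exceeds 3; genes with two or more such siRNAs out of three were retested with fresh siRNAs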. Meaning of the calls: active = raised luciferase; inactive = no rise.
The whole screen tested about 59,000 reagents; this is an unselected part. About 1,510 of all reagents (2.6%) count as active. 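Calls use total luciferase alone and ignore viability, so some active siRNAs may act by altering cell number.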 The numbers tell different reagents against one gene apart. Further read-outs or replicates are left out here. Reagent sequences are not shown.

| gene symbol | reagent no. | total luciferase, z-score | total luciferase, % of control | luciferase per cell, z-score | activity call |
| --- | --- | --- | --- | --- | --- |
| ZNF506 | 1 | 0.36 | 89.1 | 0.493 | inactive |
| ZNF506 | 2 | -0.766 | 66.7 | -0.848 | inactive |
| ZNF506 | 3 | -0.463 | 72.7 | -0.228 | inactive |
| KISS1R | 1 | -0.547 | 71 | 0.746 | inactive |
| KISS1R | 2 | 0.00487 | 82 | -0.347 | inactive |
| KISS1R | 3 | -0.731 | 67.3 | -0.377 | inactive |
| PDIA6 | 1 | -1.93 | 43.4 | -2.08 | inactive |
| PDIA6 | 2 | 0.137 | 84.6 | 0.253 | inactive |
| PDIA6 | 3 | -0.0979 | 79.9 | -0.557 | inactive |
| CARS1 | 1 | -1.02 | 61.5 | -1.71 | inactive |
| CARS1 | 2 | -0.397 | 74 | -0.33 | inactive |
| CARS1 | 3 | 0.823 | 98.3 | 0.382 | inactive |

Copied from the list:
For “activity call”, CARS1 #3 is entered as inactive
PDIA6 #3, total luciferase, % of control → 79.9

More entries follow:
| gene symbol | reagent no. | total luciferase, z-score | total luciferase, % of control | luciferase per cell, z-score | activity call |
| --- | --- | --- | --- | --- | --- |
| CZIB | 1 | -1.61 | 49.8 | -2.01 | inactive |
| CZIB | 2 | -0.966 | 62.7 | -0.558 | inactive |
| CZIB | 3 | -0.433 | 73.3 | -0.444 | inactive |
| HROB | 1 | -0.54 | 71.1 | -0.382 | inactive |
| HROB | 2 | -0.497 | 72 | -0.646 | inactive |
| HROB | 3 | -1.66 | 48.9 | -2.21 | inactive |
| CXorf66 | 1 | 0.877 | 99.3 | 0.624 | inactive |
| CXorf66 | 2 | 1.62 | 114 | 0.876 | inactive |
| CXorf66 | 3 | 0.397 | 89.8 | -0.248 | inactive |
| RAPSN | 1 | -0.106 | 79.8 | -0.15 | inactive |
| RAPSN | 2 | -0.291 | 76.1 | -0.703 | inactive |
| RAPSN | 3 | -0.0389 | 81.1 | 1.13 | inactive |
